The record followed here is paper doi:10.1101/773804.

The assay concerns the target T1, myc-tagged CLN6 (human (cDNA from HeLa and HEK293-T RNA)) (UniProt Q9NWW5).
T1 sequence: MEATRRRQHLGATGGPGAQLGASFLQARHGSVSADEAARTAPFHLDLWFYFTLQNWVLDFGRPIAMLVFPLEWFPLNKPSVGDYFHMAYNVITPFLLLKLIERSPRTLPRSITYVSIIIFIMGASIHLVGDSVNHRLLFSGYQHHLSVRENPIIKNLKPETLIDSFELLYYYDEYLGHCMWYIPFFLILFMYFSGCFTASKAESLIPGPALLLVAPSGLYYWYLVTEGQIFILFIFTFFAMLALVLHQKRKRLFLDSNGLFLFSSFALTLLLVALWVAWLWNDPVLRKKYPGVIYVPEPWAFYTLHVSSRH
In words: co-IP.

No constants are given. Whether binding was seen depends on the method and setting. Binding seen in cells or lysates may run through a third protein. Some binding calls cover weakened binding; strength is not graded here. Tags and fused reporters may be left off the sequences shown.

B1: lipase maturation factor 1 (LMF1) (protein, UniProt Q96S06 1-567)
chain: MRPDSPTMAAPAESLRRRKTGYSDPEPESPPAPGRGPAGSPAHLHTGTFWLTRIVLLKALAFVYFVAFLVAFHQNKQLIGDRGLLPCRVFLKNFQQYFQDRTSWEVFSYMPTILWLMDWSDMNSNLDLLALLGLGISSFVLITGCANMLLMAALWGLYMSLVNVGHVWYSFGWESQLLETGFLGIFLCPLWTLSRLPQHTPTSRIVLWGFRWLIFRIMLGAGLIKIRGDRCWRDLTCMDFHYETQPMPNPVAYYLHHSPWWFHRFETLSNHFIELLVPFFLFLGRRACIIHGVLQILFQAVLIVSGNLSFLNWLTMVPSLACFDDATLGFLFPSGPGSLKDRVLQMQRDIRGARPEPRFGSVVRRAANVSLGVLLAWLSVPVVLNLLSSRQVMNTHFNSLHIVNTYGAFGSITKERAEVILQGTASSNASAPDAMWEDYEFKCKPGDPSRRPCLISPYHYRLDWLMWFAAFQTYEHNDWIIHLAGKLLASDAEALSLLAHNPFAGRPPPRWVRGEHYRYKFSRPGGRHAAEGKWWVRKRIGAYFPPLSLEELRPYFRDRGWPLPGPL
Take B1: the binding entry is on record as “no binding”.

B2: myc-tagged CLN6 (protein, UniProt Q9NWW5 1-311)
chain: T1 sequence
With B2, the binding entry is “binds”.
